The experiment deals with SARS-CoV-2 clinical isolates D614G. Type of experiment: cell-based.

The values below come from US20230181556A1, “USE OF PSYCHOTROPIC DRUGS FOR THE TREATMENT OF CORONAVIRUS INFECTIONS” (priority 2020, published 2023).

For orientation: IC50 means the concentration that gives 50% inhibition. Lower therefore signals greater potency in that assay. For `Clc1ccc2c(c1)CCc1cccnc1C2=C1CCNCC1` [Desloratadine], the IC50 was 5.75 µM.
